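Compounds were printed on reactive glass slides in duplicate spots, a dye-labelled oligonucleotide was laid over them, and the fluorescence left after washing was read. The data file lists only calls. An earlier report of the laboratory on the PreQ1, TPP and SAM-II riboswitches (doi:10.1038/s41467-019-09493-3) used 1 µM RNA for 2 h and required a mean Z-score above 3 (spot signal-to-noise against the whole library), a score well above that on a control array, and duplicate spots agreeing (coefficient of variation under 100); it then also set aside compounds that hit other targets, which this list keeps. The cut-offs behind this list may differ. These are primary screening calls, not affinities; a compound without a hit may have attached poorly or may still bind in solution.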
A compound is marked active if it was called a hit and inactive if it was screened but was not.
The compounds are a random part of those screened.

Oligonucleotides screened, 5′ to 3′:
TPP: TPP riboswitch RNA three-way junction, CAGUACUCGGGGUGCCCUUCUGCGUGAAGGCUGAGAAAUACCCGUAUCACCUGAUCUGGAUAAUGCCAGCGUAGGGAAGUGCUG. About 160 hits among about 24,000 compounds.
PreQ1: PreQ1 riboswitch RNA pseudoknot, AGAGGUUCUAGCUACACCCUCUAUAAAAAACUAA. From B. subtilis. About 170 hits among about 24,000 compounds.

SMILES: CCOC(=O)c1cc[nH]c1CC(=O)NC
TPP: inactive
PreQ1: inactive

SMILES: O=C(NCC(O)COC1CCCCC1)c1cnn2cc(CCO)cnc12 (stereo not shown)
TPP: inactive
PreQ1: inactive

SMILES: COC(=O)[C@@H](NCC(=O)NCc1ccccc1F)c1ccccc1
TPP: inactive
PreQ1: inactive

SMILES: Nc1nnc(SCC(=O)N2CCc3[nH]cnc3C2)s1
TPP: inactive
PreQ1: inactive

SMILES: Cc1ccc2cc(-c3noc(C)n3)c(NCc3ccc(F)cc3Cl)nc2c1
TPP: inactive
PreQ1: inactive

SMILES: Nc1ccc2oc(-c3ccc(F)cc3Cl)nc2c1
TPP: inactive
PreQ1: inactive

SMILES: CN(Cc1c[nH]nc1-c1cccc(F)c1)CC1(CO)CC1
TPP: inactive
PreQ1: inactive

SMILES: C=CCC1=CC=CC(=CNNC(=O)CN2CCN(Cc3ccccc3)CC2)C1=O
TPP: inactive
PreQ1: inactive

SMILES: CC(C)COCC1CC2(CC(C)(c3csc(N)n3)OC2=O)C(=O)O1 (stereo not shown)
TPP: inactive
PreQ1: inactive

SMILES: Nc1ccc2c(c1)nnn2-c1ccccc1
TPP: inactive
PreQ1: inactive

SMILES: CCC[C@H]1CN(CCCO)C[C@@H]1NC(=O)Cn1cc(C)cn1
TPP: inactive
PreQ1: inactive

SMILES: Cc1cc(Nc2cccc(C(=O)N(C)C3CCCCC3)c2)n2nc(-c3cccnc3)nc2n1
TPP: inactive
PreQ1: inactive

SMILES: C=CCN1C(=O)C2(c3ccccc31)c1c(oc3ccccc3c1=O)C(=O)N2CCO (stereo not shown)
TPP: inactive
PreQ1: inactive

SMILES: CCc1nc2c(c(C)c(C)n2CCCN(C)C)c(N)c1C
TPP: inactive
PreQ1: inactive

SMILES: CCOC(=O)c1cnc2ccccc2c1NCC(C)O (stereo not shown)
TPP: inactive
PreQ1: inactive

SMILES: CCOC(=O)c1ccccc1Nc1cc(C)nc(C)n1
TPP: inactive
PreQ1: inactive

SMILES: CNc1cc(C)nc2c(C)c(-c3cccc(C)c3)nn12
TPP: inactive
PreQ1: inactive

SMILES: Cc1ccc(S(=O)(=O)c2nnn3c2nc(NC(C)C)c2ccccc23)cc1
TPP: inactive
PreQ1: inactive

SMILES: Cc1ccccc1-c1nc(Cn2cc(CO)c(-c3cccs3)n2)c(C)o1
TPP: inactive
PreQ1: inactive

SMILES: O=C1CCc2ccc(OCCCCN3CCN(c4cccc(Cl)c4Cl)CC3)cc2N1
TPP: inactive
PreQ1: inactive

SMILES: O=C(C1CCN(C2CCCC2)CC1)N1CCc2c([nH]n(CCO)c2=O)C1
TPP: inactive
PreQ1: inactive

SMILES: COCCNc1c2c(c(C#N)c3nc4ccccc4n13)CCC2
TPP: inactive
PreQ1: inactive

SMILES: COc1ccc(NCc2nc(=O)n(Cc3ccc(Cl)cc3)[nH]2)cc1
TPP: inactive
PreQ1: inactive

For reference, 3 entries once more:

- CCC[C@H]1CN(CCCO)C[C@@H]1NC(=O)Cn1cc(C)cn1 | TPP: inactive; PreQ1: inactive
- Nc1ccc2c(c1)nnn2-c1ccccc1 | TPP: inactive; PreQ1: inactive
- Cc1ccc(S(=O)(=O)c2nnn3c2nc(NC(C)C)c2ccccc23)cc1 | TPP: inactive; PreQ1: inactive

Calls as published in the ROBIN set (doi:10.1002/anie.202211358).